PubChem BioAssay AID1259308, NCATS – 2017

Purpose: 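Genes whose loss raises luciferase production in HEK293 cells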 (primary screen)
System: human HEK293 embryonic kidney cells stably expressing firefly luciferase (HEK-CMV-Luc2-Hygro)
Reagent: single siRNA against human genes, 0.8 pmol siRNA per well
Time to read-out: 72 h
Read-out: 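Luciferase light (ONE-Glo) measured on one replicate plate set and viability (CellTiter-Glo) on the other, scaled to a negative control siRNA, with robust z-scores and luciferase per cell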
Reading the numbers: total luciferase, z-score and total luciferase, % of control: higher = more reporter protein produced
Active means: 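An siRNA counts as active if its total luciferase robust z-score exceeds 3; genes with two or more such siRNAs out of three were retested with fresh siRNAs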
Calls: active = raised luciferase; inactive = no rise
The whole screen tested about 59,000 reagents; below is a part drawn at random. Over the whole deposit, about 1,510 (2.6%) are marked active. 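Calls use total luciferase alone and ignore viability, so some active siRNAs may act by altering cell number.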 Entries without a mark were called inactive. The numbers tell different reagents against one gene apart. Not all columns of the deposit are shown. Reagent sequences are not shown.

GTF2IP20 #1 scored total luciferase, z-score -0.102; total luciferase, % of control 79.9.
After knock-down of GTF2IP20 #2, the record shows total luciferase, z-score 0.279; total luciferase, % of control 87.4.
Silencing of GTF2IP20 #3 came out at: total luciferase, z-score 1.04; total luciferase, % of control 103.
Depletion of ZNF473 #1 resulted in: total luciferase, z-score 0.0308; total luciferase, % of control 82.5.
With knock-down of ZNF473 #2 the results were total luciferase, z-score -0.145; total luciferase, % of control 79.
ZNF473 #3 gave total luciferase, z-score 1.1; total luciferase, % of control 104.
After knock-down of FBXO24 #1 the results were total luciferase, z-score -0.305; total luciferase, % of control 75.8.
Against FBXO24 #2 the deposit lists total luciferase, z-score -0.592; total luciferase, % of control 70.1.
For FBXO24 #3, the entry reads total luciferase, z-score 0.22; total luciferase, % of control 86.3.
SPDYE4 #1 showed total luciferase, z-score 2.91; total luciferase, % of control 140.
Against SPDYE4 #2 the deposit lists total luciferase, z-score 0.763; total luciferase, % of control 97.1.
For SPDYE4 #3 the deposit lists total luciferase, z-score 0.37; total luciferase, % of control 89.2.
With knock-down of XCL1 #1 the results were total luciferase, z-score -0.475; total luciferase, % of control 72.4.
Knock-down of XCL1 #2 gave: total luciferase, z-score 0.112; total luciferase, % of control 84.1.
XCL1 #3 scored total luciferase, z-score -0.554; total luciferase, % of control 70.9.
With knock-down of OR3A4P #1 the results were total luciferase, z-score 2.65; total luciferase, % of control 135.
OR3A4P #2 gave total luciferase, z-score 1.71; total luciferase, % of control 116.
For OR3A4P #3 the deposit lists total luciferase, z-score -1.03; total luciferase, % of control 61.4.

No new results follow: 3 of the entries above.
SPDYE4 #2 — total luciferase, z-score = 0.763; total luciferase, % of control = 97.1
SPDYE4 #3 — total luciferase, z-score = 0.37; total luciferase, % of control = 89.2
XCL1 #1 — total luciferase, z-score = -0.475; total luciferase, % of control = 72.4

The listing continues:
Depletion of MICOS10 #1 came out at: total luciferase, z-score -0.0383; total luciferase, % of control 81.1.
MICOS10 #2 showed total luciferase, z-score 2.34; total luciferase, % of control 129.
Silencing of MICOS10 #3 came out at: total luciferase, z-score 1.51; total luciferase, % of control 112.
Knock-down of NSFL1C #1 came out at: total luciferase, z-score 1.9; total luciferase, % of control 120.
NSFL1C #2 gave total luciferase, z-score -0.155; total luciferase, % of control 78.8.
For NSFL1C #3, the entry reads total luciferase, z-score -0.126; total luciferase, % of control 79.4.
After knock-down of BACE2 #1, the record shows total luciferase, z-score -1.24; total luciferase, % of control 57.2.
After knock-down of BACE2 #2 the results were total luciferase, z-score -0.0675; total luciferase, % of control 80.5.
With knock-down of BACE2 #3, the record shows total luciferase, z-score 1.09; total luciferase, % of control 104.
Depletion of BZW2 #1 gave: total luciferase, z-score 0.232; total luciferase, % of control 86.5.
With knock-down of BZW2 #2, the record shows total luciferase, z-score -0.508; total luciferase, % of control 71.8.
Against BZW2 #3 the deposit lists total luciferase, z-score 1.86; total luciferase, % of control 119.
With knock-down of AGXT #1 the results were total luciferase, z-score 0.222; total luciferase, % of control 86.3.
Silencing of AGXT #2 came out at: total luciferase, z-score -0.232; total luciferase, % of control 77.3.
AGXT #3 showed total luciferase, z-score -0.188; total luciferase, % of control 78.1.
After knock-down of OR2Z1 #1, the record shows total luciferase, z-score 1.56; total luciferase, % of control 113.
For OR2Z1 #2 the deposit lists total luciferase, z-score -3.33; total luciferase, % of control 15.6.
After knock-down of OR2Z1 #3, the screen gave total luciferase, z-score 1.43; total luciferase, % of control 110.
Against LZIC #1, the entry reads total luciferase, z-score -1.04; total luciferase, % of control 61.1.
LZIC #2 showed total luciferase, z-score 2.39; total luciferase, % of control 129.
LZIC #3 gave total luciferase, z-score 0.645; total luciferase, % of control 94.7.
After knock-down of APPL1 #1 the results were total luciferase, z-score -0.0913; total luciferase, % of control 80.1.
Knock-down of APPL1 #2 gave: total luciferase, z-score -0.123; total luciferase, % of control 79.4.
Against APPL1 #3, the values are total luciferase, z-score 0.176; total luciferase, % of control 85.4.
